The assay concerns the target T1, EphB4 Fc (UniProt P54761).
T1 sequence: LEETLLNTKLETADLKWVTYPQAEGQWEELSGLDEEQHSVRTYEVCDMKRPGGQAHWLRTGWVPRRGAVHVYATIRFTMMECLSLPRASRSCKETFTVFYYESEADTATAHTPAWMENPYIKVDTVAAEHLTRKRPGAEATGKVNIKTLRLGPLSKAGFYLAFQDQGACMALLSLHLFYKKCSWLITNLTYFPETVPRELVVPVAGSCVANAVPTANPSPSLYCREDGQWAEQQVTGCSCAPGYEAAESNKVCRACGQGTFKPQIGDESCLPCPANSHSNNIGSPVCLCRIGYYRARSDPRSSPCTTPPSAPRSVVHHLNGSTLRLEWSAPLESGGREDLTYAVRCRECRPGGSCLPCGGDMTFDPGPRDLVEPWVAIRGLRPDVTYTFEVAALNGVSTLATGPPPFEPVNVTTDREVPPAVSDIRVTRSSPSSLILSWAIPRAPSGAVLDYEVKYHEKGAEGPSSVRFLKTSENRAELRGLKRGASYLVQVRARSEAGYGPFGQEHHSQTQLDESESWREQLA
The assay can be described thus: ELISA; EphB4 Fc (1 µg/ml) on protein A-coated plates, 3 hours with 0.02 nM ephrin-B2 AP in culture medium diluted in TBST; wells with human Fc instead of EphB4 Fc subtracted as background; only the target purified. Background: ELISA stands for enzyme-linked immunosorbent assay.

Chains of the proteins cited; added tags and fusions are not shown. Residues count along the entry.
UniProt P52800, residues 29-232: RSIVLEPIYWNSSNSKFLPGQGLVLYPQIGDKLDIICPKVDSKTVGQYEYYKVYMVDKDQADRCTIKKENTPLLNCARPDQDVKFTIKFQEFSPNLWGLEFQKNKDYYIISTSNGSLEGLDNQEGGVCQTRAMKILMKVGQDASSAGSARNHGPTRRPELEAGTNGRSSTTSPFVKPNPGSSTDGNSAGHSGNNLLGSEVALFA

This is an account of results in publication PMC3237458, “PEGylation Potentiates the Effectiveness of an Antagonistic Peptide That Targets the EphB4 Receptor with Nanomolar Affinity” (PLoS ONE, 2011).

These are yes or no findings as the source states them, for the method shown. Some binding calls cover weakened binding; strength is not graded here. Where a sequence is shown, tags or fusion partners need not be part of it.

Regarding “mouse ephrin-B2 AP (from UniProt P52800 29-232) (ligand)”, the binding result was “binds”.
